This test deals with lung cancer cell line (A549). The experiment in a line: Antiproliferative activity, MTT assay under hypoxic conditions. Particulars: Homo sapiens, A549, read-out: Cytotoxicity IC50 A549.

Regarding `CN[C@@H]1C[C@H]2O[C@@](C)([C@@H]1OC)n1c3ccccc3c3c4c(c5c6ccccc6n2c5c31)C(=O)NC4` [Staurosporine, staurosporine, reference compound], the IC50 turned out to be 6.06 ± 0.17 µM.

The values above are taken from article PMC9146896, “Uracil as a Zn-Binding Bioisostere of the Allergic Benzenesulfonamide in the Design of Quinoline–Uracil Hybrids as Anticancer Carbonic Anhydrase Inhibitors” (Pharmaceuticals, 2022).
